Measurements: the supplement of paper PMC12823440, “Inhibitors supercharge kinase turnover through native proteolytic circuits” (Nature, 2025)
Structures can show the parent of a compound that is named as a salt. The list shows a part of the results. The calls rarely recur for the same compound in another form.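 In K562 cells expressing nanoluciferase-fused kinases, luminescence was recorded at 4 h intervals between 2 and 18 h, normalized as percent of control with DMSO at 100% and a positive control at 0%. A significant (2 sigma) signal drop marks a time point as decreased. The authors' rule for a hit is not shown and takes in more than the number of time points.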

Chains of the proteins cited; added tags and fusions are not shown. Lines headed by an entry give the natural chain unless they say otherwise; changes in a name come on top.
UniProt Q9Y616: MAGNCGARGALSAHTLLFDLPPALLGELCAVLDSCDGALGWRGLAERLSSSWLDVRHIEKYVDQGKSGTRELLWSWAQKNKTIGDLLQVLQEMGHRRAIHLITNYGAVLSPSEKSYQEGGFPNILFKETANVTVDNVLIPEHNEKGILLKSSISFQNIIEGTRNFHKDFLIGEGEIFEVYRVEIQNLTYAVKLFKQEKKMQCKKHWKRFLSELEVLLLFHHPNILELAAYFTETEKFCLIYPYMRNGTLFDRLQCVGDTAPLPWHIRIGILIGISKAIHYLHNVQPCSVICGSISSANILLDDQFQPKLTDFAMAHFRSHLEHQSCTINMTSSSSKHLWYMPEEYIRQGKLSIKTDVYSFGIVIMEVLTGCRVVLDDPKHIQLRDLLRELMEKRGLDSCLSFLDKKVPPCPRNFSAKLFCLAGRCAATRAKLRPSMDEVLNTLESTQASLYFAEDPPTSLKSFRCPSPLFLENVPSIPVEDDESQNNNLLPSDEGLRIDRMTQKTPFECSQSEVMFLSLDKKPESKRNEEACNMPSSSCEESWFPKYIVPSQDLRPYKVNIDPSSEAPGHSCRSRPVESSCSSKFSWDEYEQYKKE
UniProt P53671: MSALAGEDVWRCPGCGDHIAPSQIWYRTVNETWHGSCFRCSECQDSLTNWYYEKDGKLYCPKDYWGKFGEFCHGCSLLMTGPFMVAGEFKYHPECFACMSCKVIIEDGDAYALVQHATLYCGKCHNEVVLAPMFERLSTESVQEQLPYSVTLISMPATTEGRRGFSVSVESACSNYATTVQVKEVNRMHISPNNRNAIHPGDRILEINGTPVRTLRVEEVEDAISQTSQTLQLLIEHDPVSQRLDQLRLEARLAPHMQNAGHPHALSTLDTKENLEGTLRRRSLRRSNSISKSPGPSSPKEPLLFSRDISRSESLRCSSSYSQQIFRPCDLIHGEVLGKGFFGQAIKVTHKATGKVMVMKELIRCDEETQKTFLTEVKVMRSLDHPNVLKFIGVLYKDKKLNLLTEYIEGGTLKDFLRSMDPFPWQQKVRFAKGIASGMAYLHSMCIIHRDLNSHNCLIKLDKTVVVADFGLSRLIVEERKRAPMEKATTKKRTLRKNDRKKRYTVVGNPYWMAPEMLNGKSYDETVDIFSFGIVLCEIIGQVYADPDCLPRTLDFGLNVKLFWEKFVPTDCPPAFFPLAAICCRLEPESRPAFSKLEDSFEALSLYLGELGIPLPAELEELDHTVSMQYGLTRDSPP
UniProt Q8IWU2: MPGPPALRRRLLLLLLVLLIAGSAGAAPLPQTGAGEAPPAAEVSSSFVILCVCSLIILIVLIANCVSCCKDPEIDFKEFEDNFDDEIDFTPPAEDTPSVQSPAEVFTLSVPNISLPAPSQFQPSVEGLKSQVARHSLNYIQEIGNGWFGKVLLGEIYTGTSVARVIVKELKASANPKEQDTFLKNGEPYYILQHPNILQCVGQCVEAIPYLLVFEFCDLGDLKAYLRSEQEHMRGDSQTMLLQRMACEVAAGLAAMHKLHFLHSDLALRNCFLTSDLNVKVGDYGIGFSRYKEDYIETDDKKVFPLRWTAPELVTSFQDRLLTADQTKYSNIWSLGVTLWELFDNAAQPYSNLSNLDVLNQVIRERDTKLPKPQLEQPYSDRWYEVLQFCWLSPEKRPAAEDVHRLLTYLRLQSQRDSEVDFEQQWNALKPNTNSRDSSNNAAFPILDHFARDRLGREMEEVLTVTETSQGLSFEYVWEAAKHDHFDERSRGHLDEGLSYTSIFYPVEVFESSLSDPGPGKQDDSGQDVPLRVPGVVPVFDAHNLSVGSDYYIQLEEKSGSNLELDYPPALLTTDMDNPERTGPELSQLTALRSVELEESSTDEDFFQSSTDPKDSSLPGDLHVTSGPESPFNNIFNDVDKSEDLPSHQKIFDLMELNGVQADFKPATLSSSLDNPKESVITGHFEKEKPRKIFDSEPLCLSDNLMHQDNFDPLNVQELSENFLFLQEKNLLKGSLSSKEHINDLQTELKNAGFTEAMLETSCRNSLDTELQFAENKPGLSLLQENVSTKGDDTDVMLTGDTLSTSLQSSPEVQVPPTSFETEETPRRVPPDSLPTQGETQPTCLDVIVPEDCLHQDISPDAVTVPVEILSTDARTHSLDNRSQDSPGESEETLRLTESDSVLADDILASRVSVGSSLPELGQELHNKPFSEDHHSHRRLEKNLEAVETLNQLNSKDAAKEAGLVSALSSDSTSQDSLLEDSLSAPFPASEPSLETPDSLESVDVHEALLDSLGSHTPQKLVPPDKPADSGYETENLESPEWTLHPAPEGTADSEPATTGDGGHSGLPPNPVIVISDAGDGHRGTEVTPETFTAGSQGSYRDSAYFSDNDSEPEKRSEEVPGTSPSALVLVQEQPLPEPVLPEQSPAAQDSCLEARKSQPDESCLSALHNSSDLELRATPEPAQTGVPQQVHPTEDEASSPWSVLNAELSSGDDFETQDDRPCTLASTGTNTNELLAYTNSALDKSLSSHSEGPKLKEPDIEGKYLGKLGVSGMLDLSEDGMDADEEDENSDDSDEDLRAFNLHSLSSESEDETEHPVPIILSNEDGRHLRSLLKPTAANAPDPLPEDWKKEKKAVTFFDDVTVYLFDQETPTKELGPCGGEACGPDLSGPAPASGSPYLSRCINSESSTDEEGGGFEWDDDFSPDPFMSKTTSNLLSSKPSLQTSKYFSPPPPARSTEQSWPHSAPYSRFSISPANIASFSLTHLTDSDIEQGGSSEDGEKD
UniProt P07948: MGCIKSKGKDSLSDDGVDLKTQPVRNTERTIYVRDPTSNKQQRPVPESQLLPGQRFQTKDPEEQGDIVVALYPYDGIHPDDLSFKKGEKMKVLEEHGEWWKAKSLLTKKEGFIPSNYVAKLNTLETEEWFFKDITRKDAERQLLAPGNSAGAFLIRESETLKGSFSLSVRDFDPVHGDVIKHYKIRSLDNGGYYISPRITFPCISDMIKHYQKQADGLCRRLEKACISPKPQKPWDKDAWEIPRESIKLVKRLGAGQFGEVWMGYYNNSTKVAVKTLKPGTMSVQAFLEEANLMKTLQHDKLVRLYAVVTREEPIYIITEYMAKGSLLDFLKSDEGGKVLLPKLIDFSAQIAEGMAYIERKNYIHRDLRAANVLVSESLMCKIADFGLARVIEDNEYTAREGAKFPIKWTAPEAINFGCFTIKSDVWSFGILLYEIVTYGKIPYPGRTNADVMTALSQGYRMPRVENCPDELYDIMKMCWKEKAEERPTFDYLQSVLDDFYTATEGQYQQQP
UniProt Q12851: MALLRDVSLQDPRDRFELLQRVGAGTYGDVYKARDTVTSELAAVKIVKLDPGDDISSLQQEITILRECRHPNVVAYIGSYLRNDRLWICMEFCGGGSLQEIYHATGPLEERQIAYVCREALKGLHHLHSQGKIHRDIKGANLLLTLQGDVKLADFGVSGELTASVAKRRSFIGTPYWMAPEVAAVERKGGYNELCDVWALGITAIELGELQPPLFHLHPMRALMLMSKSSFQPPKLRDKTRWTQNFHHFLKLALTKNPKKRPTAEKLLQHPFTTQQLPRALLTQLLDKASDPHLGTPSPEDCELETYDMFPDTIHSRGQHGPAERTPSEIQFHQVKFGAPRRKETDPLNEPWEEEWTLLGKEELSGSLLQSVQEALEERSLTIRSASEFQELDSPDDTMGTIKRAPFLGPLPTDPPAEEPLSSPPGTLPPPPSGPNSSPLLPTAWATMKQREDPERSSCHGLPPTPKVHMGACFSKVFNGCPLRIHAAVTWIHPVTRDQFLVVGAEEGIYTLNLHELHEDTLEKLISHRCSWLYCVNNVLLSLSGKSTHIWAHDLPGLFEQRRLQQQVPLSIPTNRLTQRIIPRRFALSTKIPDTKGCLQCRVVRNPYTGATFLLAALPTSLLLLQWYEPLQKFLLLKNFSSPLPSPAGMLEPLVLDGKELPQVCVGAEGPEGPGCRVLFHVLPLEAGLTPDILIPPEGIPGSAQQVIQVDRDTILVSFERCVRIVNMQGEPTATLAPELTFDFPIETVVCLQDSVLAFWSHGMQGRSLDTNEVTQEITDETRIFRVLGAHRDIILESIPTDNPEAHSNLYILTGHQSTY
UniProt P49137, whole entry, looked up: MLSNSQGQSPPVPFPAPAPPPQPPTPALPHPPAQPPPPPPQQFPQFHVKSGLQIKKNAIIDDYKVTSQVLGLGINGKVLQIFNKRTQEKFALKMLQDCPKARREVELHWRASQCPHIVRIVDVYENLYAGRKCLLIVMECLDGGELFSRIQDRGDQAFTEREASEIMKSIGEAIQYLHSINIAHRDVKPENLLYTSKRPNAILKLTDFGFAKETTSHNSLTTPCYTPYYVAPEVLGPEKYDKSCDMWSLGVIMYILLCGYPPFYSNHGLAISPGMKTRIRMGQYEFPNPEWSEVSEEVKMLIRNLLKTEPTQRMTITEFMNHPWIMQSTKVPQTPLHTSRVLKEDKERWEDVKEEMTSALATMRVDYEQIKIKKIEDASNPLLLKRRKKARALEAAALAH
UniProt Q9BUB5: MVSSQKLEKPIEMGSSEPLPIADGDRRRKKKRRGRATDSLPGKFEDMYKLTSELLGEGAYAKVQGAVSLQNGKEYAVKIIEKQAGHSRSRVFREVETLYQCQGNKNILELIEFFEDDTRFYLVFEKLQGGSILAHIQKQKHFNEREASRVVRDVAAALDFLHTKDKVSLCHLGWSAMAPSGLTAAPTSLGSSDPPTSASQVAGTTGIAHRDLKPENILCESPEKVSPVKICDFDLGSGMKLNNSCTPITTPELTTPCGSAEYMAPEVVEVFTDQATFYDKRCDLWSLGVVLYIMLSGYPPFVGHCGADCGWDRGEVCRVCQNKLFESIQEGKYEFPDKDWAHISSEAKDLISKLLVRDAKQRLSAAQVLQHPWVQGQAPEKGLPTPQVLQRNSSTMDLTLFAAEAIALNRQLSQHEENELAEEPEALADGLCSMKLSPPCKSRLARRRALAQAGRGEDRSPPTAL
UniProt Q96KB5: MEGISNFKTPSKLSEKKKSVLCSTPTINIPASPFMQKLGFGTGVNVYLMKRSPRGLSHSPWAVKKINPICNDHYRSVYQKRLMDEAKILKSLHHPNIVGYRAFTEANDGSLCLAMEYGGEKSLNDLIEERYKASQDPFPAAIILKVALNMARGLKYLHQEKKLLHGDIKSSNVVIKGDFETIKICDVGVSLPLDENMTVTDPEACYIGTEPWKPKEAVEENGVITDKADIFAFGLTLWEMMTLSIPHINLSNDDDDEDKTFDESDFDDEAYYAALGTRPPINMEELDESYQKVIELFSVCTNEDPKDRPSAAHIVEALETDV
UniProt P09619, whole entry: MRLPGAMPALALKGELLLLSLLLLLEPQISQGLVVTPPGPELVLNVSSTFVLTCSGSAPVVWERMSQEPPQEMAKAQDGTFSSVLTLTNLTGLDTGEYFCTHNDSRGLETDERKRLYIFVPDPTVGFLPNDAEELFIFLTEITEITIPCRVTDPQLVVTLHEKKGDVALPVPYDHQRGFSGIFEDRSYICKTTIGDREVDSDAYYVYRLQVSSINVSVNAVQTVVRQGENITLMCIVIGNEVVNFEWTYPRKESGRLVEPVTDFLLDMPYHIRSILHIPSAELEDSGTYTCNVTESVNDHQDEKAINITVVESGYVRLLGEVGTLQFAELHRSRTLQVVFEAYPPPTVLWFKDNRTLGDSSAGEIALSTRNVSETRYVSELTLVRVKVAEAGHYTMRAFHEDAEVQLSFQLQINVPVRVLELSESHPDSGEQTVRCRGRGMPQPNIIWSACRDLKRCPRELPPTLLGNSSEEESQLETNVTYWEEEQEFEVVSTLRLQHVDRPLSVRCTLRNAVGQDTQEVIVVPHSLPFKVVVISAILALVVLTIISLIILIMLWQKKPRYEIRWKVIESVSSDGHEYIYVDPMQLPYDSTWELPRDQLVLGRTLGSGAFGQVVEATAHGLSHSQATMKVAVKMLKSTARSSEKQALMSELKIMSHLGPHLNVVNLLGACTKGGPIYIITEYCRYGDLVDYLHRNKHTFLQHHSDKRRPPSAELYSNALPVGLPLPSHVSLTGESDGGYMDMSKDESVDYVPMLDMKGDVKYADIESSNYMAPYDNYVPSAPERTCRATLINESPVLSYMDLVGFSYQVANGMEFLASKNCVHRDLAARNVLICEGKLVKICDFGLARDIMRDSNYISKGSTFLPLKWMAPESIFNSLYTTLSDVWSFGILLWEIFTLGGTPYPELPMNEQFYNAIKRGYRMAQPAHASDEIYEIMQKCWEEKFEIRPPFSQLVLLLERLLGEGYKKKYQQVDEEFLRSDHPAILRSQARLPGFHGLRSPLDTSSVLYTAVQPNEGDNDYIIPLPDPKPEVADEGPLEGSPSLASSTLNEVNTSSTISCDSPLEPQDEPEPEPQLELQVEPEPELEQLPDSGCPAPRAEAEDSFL

What was measured:
Assay in all cases: kinase-Nluc reporter destabilization hit call (1 = scored as downregulated) (binary); higher = compound decreases kinase abundance
Settings in all cases: K562; 2-18 h
IRAK3 = IRAK3 (UniProt Q9Y616)
JAK1 = JAK1 (UniProt P23458)
LCK = LCK (UniProt P06239)
LIMK1 = LIMK1 (UniProt P53667)
LIMK2 = LIMK2 (UniProt P53671)
LMTK2 = LMTK2 (UniProt Q8IWU2)
LYN = LYN (UniProt P07948)
MAP2K1 = MAP2K1 (UniProt Q02750)
MAP2K2 = MAP2K2 (UniProt P36507)
MAP4K2 = MAP4K2 (UniProt Q12851)
MAPK1 = MAPK1 (UniProt P28482)
MAPK4 = MAPK4 (UniProt P31152)
MAPKAPK2 = MAPKAPK2 (UniProt P49137)
MKNK1 = MKNK1 (UniProt Q9BUB5)
NTRK2 = NTRK2 (UniProt Q16620)
NTRK3 = NTRK3 (UniProt Q16288)
PAK4 = PAK4 (UniProt O96013)
PBK = PBK (UniProt Q96KB5)
PDGFRB = PDGFRB (UniProt P09619)
PDK1 = PDK1 (UniProt Q15118)

Measured: kinase-Nluc reporter destabilization hit call

O=C1c2cccc(O)c2C(=O)c2c(O)cccc21 [Danthron] (10 µM)
inactive: IRAK3 = 0 | JAK1 = 0 | LCK 0 | LIMK1 = 0 | LIMK2 = 0 | LMTK2 = 0 | LYN 0 | MAP2K1 = 0 | MAP2K2 = 0 | MAP4K2 = 0 | MAPK1 = 0 | MAPK4 = 0 | MAPKAPK2 = 0 | MKNK1 = 0 | NTRK2 = 0 | NTRK3 = 0 | PAK4 = 0 | PBK 0 | PDGFRB 0 | PDK1 = 0

COC(=O)/C=C/c1ccc(O)c(OC)c1 [Ferulic acid methyl ester] (10 µM)
inactive: IRAK3 = 0 | JAK1 = 0 | LCK 0 | LIMK1 = 0 | LIMK2 = 0 | LMTK2 = 0 | LYN 0 | MAP2K1 = 0 | MAP2K2 = 0 | MAP4K2 = 0 | MAPK1 = 0 | MAPK4 = 0 | MAPKAPK2 = 0 | MKNK1 = 0 | NTRK2 = 0 | NTRK3 = 0 | PAK4 = 0 | PBK 0 | PDGFRB 0 | PDK1 = 0

C[C@@]12CCc3occc3[C@H]1CC[C@@]13C[C@@H](CC[C@H]12)[C@@](O)(CO)C3 [Cafestol] (10 µM)
inactive: IRAK3 = 0 | JAK1 = 0 | LCK 0 | LIMK1 = 0 | LIMK2 = 0 | LMTK2 = 0 | LYN 0 | MAP2K1 = 0 | MAP2K2 = 0 | MAP4K2 = 0 | MAPK1 = 0 | MAPK4 = 0 | MAPKAPK2 = 0 | MKNK1 = 0 | NTRK2 = 0 | NTRK3 = 0 | PAK4 = 0 | PBK 0 | PDGFRB 0 | PDK1 = 0

CN1CCN(c2ccc(NC(=O)c3ccc(C#N)o3)c(N3CCCCC3)c2)CC1 (10 µM)
inactive: IRAK3 = 0 | JAK1 = 0 | LCK 0 | LIMK1 = 0 | LIMK2 = 0 | LMTK2 = 0 | LYN 0 | MAP2K1 = 0 | MAP2K2 = 0 | MAP4K2 = 0 | MAPK1 = 0 | MAPK4 = 0 | MAPKAPK2 = 0 | MKNK1 = 0 | NTRK2 = 0 | NTRK3 = 0 | PAK4 = 0 | PBK 0 | PDGFRB 0 | PDK1 = 0

N#C/C(=C\c1ccc[nH]1)c1ccc(Cl)c(Cl)c1 (2.5 µM)
inactive: IRAK3 = 0 | JAK1 = 0 | LCK 0 | LIMK1 = 0 | LIMK2 = 0 | LMTK2 = 0 | LYN 0 | MAP2K1 = 0 | MAP2K2 = 0 | MAP4K2 = 0 | MAPK1 = 0 | MAPK4 = 0 | MAPKAPK2 = 0 | MKNK1 = 0 | NTRK2 = 0 | NTRK3 = 0 | PAK4 = 0 | PBK 0 | PDGFRB 0 | PDK1 = 0

O=C1C(=Cc2ccc(O)c(O)c2)Oc2ccccc21 (2.5 µM)
inactive: IRAK3 = 0 | JAK1 = 0 | LCK 0 | LIMK1 = 0 | LIMK2 = 0 | LMTK2 = 0 | LYN 0 | MAP2K1 = 0 | MAP2K2 = 0 | MAP4K2 = 0 | MAPK1 = 0 | MAPK4 = 0 | MAPKAPK2 = 0 | MKNK1 = 0 | NTRK2 = 0 | NTRK3 = 0 | PAK4 = 0 | PBK 0 | PDGFRB 0 | PDK1 = 0

Cc1ccc(CNC(=O)N2CCC[C@]3(CCN(Cc4ccc(Cl)c(Cl)c4)C3)C2)cc1 (10 µM)
inactive: IRAK3 = 0 | JAK1 = 0 | LCK 0 | LIMK1 = 0 | LIMK2 = 0 | LMTK2 = 0 | LYN 0 | MAP2K1 = 0 | MAP2K2 = 0 | MAP4K2 = 0 | MAPK1 = 0 | MAPK4 = 0 | MAPKAPK2 = 0 | MKNK1 = 0 | NTRK2 = 0 | NTRK3 = 0 | PAK4 = 0 | PBK 0 | PDGFRB 0 | PDK1 = 0

2 records picked at random from the list so far:
N#C/C(=C\c1ccc[nH]1)c1ccc(Cl)c(Cl)c1 (2.5 µM)
inactive: IRAK3 = 0 | JAK1 = 0 | LCK 0 | LIMK1 = 0 | LIMK2 = 0 | LMTK2 = 0 | LYN 0 | MAP2K1 = 0 | MAP2K2 = 0 | MAP4K2 = 0 | MAPK1 = 0 | MAPK4 = 0 | MAPKAPK2 = 0 | MKNK1 = 0 | NTRK2 = 0 | NTRK3 = 0 | PAK4 = 0 | PBK 0 | PDGFRB 0 | PDK1 = 0

O=C1C(=Cc2ccc(O)c(O)c2)Oc2ccccc21 (2.5 µM)
inactive: IRAK3 = 0 | JAK1 = 0 | LCK 0 | LIMK1 = 0 | LIMK2 = 0 | LMTK2 = 0 | LYN 0 | MAP2K1 = 0 | MAP2K2 = 0 | MAP4K2 = 0 | MAPK1 = 0 | MAPK4 = 0 | MAPKAPK2 = 0 | MKNK1 = 0 | NTRK2 = 0 | NTRK3 = 0 | PAK4 = 0 | PBK 0 | PDGFRB 0 | PDK1 = 0

Following part.

CCCCCC1CC1CC1CC1CCCCCCCC(=O)O (stereo not given) (10 µM)
inactive: IRAK3 = 0 | JAK1 = 0 | LCK 0 | LIMK1 = 0 | LIMK2 = 0 | LMTK2 = 0 | LYN 0 | MAP2K1 = 0 | MAP2K2 = 0 | MAP4K2 = 0 | MAPK1 = 0 | MAPK4 = 0 | MAPKAPK2 = 0 | MKNK1 = 0 | NTRK2 = 0 | NTRK3 = 0 | PAK4 = 0 | PBK 0 | PDGFRB 0 | PDK1 = 0

NC(=O)c1cccc2c(N[C@H](CN3CCC3)c3ccc(Cl)c(C(F)(F)F)c3)ncnc12 (10 µM)
inactive: IRAK3 = 0 | JAK1 = 0 | LCK 0 | LIMK1 = 0 | LIMK2 = 0 | LMTK2 = 0 | LYN 0 | MAP2K1 = 0 | MAP2K2 = 0 | MAP4K2 = 0 | MAPK1 = 0 | MAPK4 = 0 | MAPKAPK2 = 0 | MKNK1 = 0 | NTRK2 = 0 | NTRK3 = 0 | PAK4 = 0 | PBK 0 | PDGFRB 0 | PDK1 = 0

CNC(=O)Nc1cc(Oc2cncc(C)c2)c(-c2ccc(OCC(C)(C)O)nc2)cn1 (2.5 µM)
inactive: IRAK3 = 0 | JAK1 = 0 | LCK 0 | LIMK1 = 0 | LIMK2 = 0 | LMTK2 = 0 | LYN 0 | MAP2K1 = 0 | MAP2K2 = 0 | MAP4K2 = 0 | MAPK1 = 0 | MAPK4 = 0 | MAPKAPK2 = 0 | MKNK1 = 0 | NTRK2 = 0 | NTRK3 = 0 | PAK4 = 0 | PBK 0 | PDGFRB 0 | PDK1 = 0

NC(=O)c1nc(-c2c(F)cccc2Cl)oc1Nc1ccc(C(=O)N2CCOCC2)cc1 (10 µM)
inactive: IRAK3 = 0 | JAK1 = 0 | LCK 0 | LIMK1 = 0 | LIMK2 = 0 | LMTK2 = 0 | LYN 0 | MAP2K1 = 0 | MAP2K2 = 0 | MAP4K2 = 0 | MAPK1 = 0 | MAPK4 = 0 | MAPKAPK2 = 0 | MKNK1 = 0 | NTRK2 = 0 | NTRK3 = 0 | PAK4 = 0 | PBK 0 | PDGFRB 0 | PDK1 = 0

O=S(=O)(N=Cc1c(O)ccc2ccccc12)c1cccs1 (10 µM)
inactive: IRAK3 = 0 | JAK1 = 0 | LCK 0 | LIMK1 = 0 | LIMK2 = 0 | LMTK2 = 0 | LYN 0 | MAP2K1 = 0 | MAP2K2 = 0 | MAP4K2 = 0 | MAPK1 = 0 | MAPK4 = 0 | MAPKAPK2 = 0 | MKNK1 = 0 | NTRK2 = 0 | NTRK3 = 0 | PAK4 = 0 | PBK 0 | PDGFRB 0 | PDK1 = 0

COc1c(OCCCN2CCOCC2)ccc2c3n(c(=NC(=O)c4cnc(N)nc4)nc12)CCN3 [Copanlisib (dihydrochloride)] (10 µM)
inactive: IRAK3 = 0 | JAK1 = 0 | LCK 0 | LIMK1 = 0 | LIMK2 = 0 | LMTK2 = 0 | LYN 0 | MAP2K1 = 0 | MAP2K2 = 0 | MAP4K2 = 0 | MAPK1 = 0 | MAPK4 = 0 | MAPKAPK2 = 0 | MKNK1 = 0 | NTRK2 = 0 | NTRK3 = 0 | PAK4 = 0 | PBK 0 | PDGFRB 0 | PDK1 = 0

O=C(Nc1nc2cccc(-c3ccc(CN4CCS(=O)(=O)CC4)cc3)n2n1)C1CC1 [Filgotinib] (2.5 µM)
inactive: IRAK3 = 0 | JAK1 = 0 | LCK 0 | LIMK1 = 0 | LIMK2 = 0 | LMTK2 = 0 | LYN 0 | MAP2K1 = 0 | MAP2K2 = 0 | MAP4K2 = 0 | MAPK1 = 0 | MAPK4 = 0 | MAPKAPK2 = 0 | MKNK1 = 0 | NTRK2 = 0 | NTRK3 = 0 | PAK4 = 0 | PBK 0 | PDGFRB 0 | PDK1 = 0

O=C(N=c1sccn1Cc1ccccc1)c1c[nH]c2ncccc12 (10 µM)
inactive: IRAK3 = 0 | JAK1 = 0 | LCK 0 | LIMK1 = 0 | LIMK2 = 0 | LMTK2 = 0 | LYN 0 | MAP2K1 = 0 | MAP2K2 = 0 | MAP4K2 = 0 | MAPK1 = 0 | MAPK4 = 0 | MAPKAPK2 = 0 | MKNK1 = 0 | NTRK2 = 0 | NTRK3 = 0 | PAK4 = 0 | PBK 0 | PDGFRB 0 | PDK1 = 0

CN(C)CCCNc1ccn2ncc(-c3ccc4c(c3)OCO4)c2n1 (10 µM)
inactive: IRAK3 = 0 | JAK1 = 0 | LCK 0 | LIMK1 = 0 | LIMK2 = 0 | LMTK2 = 0 | LYN 0 | MAP2K1 = 0 | MAP2K2 = 0 | MAP4K2 = 0 | MAPK1 = 0 | MAPK4 = 0 | MAPKAPK2 = 0 | MKNK1 = 0 | NTRK2 = 0 | NTRK3 = 0 | PAK4 = 0 | PBK 0 | PDGFRB 0 | PDK1 = 0
